For at least one compound, name, drawing or mass did not settle the structure.
Assays:
Assay type in all cases: cell-based
[1] = test system: MRSA (methylacillin resistant Staphylococcus Aureus); assay: MIC assay, MRSA
Protocol: (§1) These assays are adapted from NCCLS protocols M7-A4 and M27-A (NCCLS vol 17:9 and vol 17:2) as modified by Sandven, S. Clin. Micro. (1999) 37:12, p.3856-3859. MIC values for Aspergillus fumigatus were determined using NCCLS protocol M38-P.
(§2) All compounds were dissolved in 100% DMSO to a stock concentration of 10 mM and use fresh or stored at −80° C. Stock compounds were kept frozen until needed and used freshly with no more then one freeze-thaw cycle. When used for test purposes, compounds were diluted in the appropriate media depending on the organism being tested.
(§3) For yeast and aspergillus species, seven 1:2 serial dilutions of compound in appropriate media buffered with MOPS at pH 7.0 were prepared such that the final starting test compound concentrations were 50.0 uM for yeast and 50 uM aspergillus species. For bacteria, dilutions were made in growth media used for the particular bacteria being tested.
(§4) Inoculums are made in the same manner as yeast except all dilutions are made in normal saline, with a final dilution of 1:200 and an inoculum of 10 μL. VRE are vancomycin resistant enterococci, BM4147 and UCD-3 represent two different sources of VRE. MRSA are […] resistant Staphylococcus Aureus.

[2] = test system: VRE-UCD3 (vancomycin resistant enterococci); assay: MIC assay, VRE strain UCD-3; details: 25 μg/mL Vancomycin - 24 h
Protocol: as §1, §2, §3, §4

[3] = test system: VRE-BM4147 (vancomycin resistant enterococci); assay: MIC assay, VRE strain BM4147; details: 25 μg/mL Vancomycin - 24 h
Protocol: as §1, §2, §3, §4

CC(C)CCn1cc(NC(=O)CN)cc1C(=O)Nc1ccc2ccc(NC(=O)c3cc(NC(=O)CN)cn3CCC(C)C)cc2c1 [Compound 188b]
MIC Assay MRSA [1]: 2.8/5.7 uM
MIC Assay VRE Strains: UCD-3 van25 [2]: 5.7/11.4 uM
MIC Assay VRE Strains: BM4147 van25 [3]: 5.7/11.4 uM

Reference: patent US20020198254A1, “Polyamide analogs” (priority 2000, published 2002)
